Results are given in words; binding and its absence hold for the method and conditions named.
Target: Prostate-specific antigen (PSA or kallikrein-related peptidase-3, KLK3), major form of active PSA (isoform PSA-B) (human) (UniProt P07288)
Test: SPR; Biacore T100; PSA amine-coupled to a CM5 chip (2000-3900 RU); alpha-chymotrypsin surface as reference, subtracted; peptides 1.2-600 uM flowed in PBS pH 7.4 (6.7 mM PO4, 0.15 M NaCl), 40 ul/min, 25 C, contact 60 s, dissociation 180 s; Steady State Affinity model; both purified

Amino acid sequences for entries named in this document (tags omitted). Residues count along the entry.
UniProt P07288, residues 25-261: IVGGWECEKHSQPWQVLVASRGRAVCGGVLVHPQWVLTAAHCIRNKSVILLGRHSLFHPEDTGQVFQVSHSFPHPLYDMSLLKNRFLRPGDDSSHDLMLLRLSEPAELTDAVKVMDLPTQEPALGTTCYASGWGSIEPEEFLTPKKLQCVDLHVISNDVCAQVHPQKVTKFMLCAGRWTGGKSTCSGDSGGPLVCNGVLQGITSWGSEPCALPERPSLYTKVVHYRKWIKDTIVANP

binding: no binding (tested: 1.2–600 µM)
Binder: CVFAHNADALVC (disulfide bridge between cysteines 1-12) [inactive derivative of peptide B2-NH2 (B2-NH2-control)]
